This is one part of the list.

By UniProt entry, the sequences of proteins in these tests, tags left out. Where a name states a change or a piece, a line headed by the entry shows the natural chain unless it says otherwise.
UniProt Q9NY27: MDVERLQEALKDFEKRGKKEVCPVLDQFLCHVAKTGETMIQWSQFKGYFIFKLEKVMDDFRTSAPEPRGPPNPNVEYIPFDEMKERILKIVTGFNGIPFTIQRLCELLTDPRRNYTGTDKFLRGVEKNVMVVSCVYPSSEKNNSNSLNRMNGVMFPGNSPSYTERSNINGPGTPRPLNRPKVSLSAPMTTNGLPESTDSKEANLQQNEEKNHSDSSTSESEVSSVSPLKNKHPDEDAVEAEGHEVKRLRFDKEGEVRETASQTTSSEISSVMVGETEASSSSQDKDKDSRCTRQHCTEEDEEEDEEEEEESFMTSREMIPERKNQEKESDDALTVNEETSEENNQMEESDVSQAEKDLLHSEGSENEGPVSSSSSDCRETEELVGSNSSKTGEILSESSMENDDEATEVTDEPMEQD
UniProt Q4J6C6, whole entry, looked up: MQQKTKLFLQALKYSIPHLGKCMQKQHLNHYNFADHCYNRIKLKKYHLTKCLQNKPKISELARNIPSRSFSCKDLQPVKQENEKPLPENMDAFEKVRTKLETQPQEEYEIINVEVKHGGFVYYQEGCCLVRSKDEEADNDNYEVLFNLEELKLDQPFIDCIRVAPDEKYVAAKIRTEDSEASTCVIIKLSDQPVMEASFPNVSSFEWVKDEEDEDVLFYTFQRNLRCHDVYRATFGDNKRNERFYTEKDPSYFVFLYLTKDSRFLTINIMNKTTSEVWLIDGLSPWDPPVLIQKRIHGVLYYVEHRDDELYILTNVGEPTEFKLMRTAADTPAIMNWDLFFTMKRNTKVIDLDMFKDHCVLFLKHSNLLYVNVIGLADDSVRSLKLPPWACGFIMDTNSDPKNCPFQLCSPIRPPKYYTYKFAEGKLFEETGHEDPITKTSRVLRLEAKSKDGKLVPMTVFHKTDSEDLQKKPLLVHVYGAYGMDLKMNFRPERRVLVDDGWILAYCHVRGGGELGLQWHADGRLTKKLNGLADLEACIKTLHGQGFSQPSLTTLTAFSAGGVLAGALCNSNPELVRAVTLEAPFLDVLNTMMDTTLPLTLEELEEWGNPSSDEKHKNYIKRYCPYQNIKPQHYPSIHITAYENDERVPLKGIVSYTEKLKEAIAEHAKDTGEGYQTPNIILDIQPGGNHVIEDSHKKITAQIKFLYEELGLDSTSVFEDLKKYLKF
UniProt Q8TCU6, whole entry, looked up: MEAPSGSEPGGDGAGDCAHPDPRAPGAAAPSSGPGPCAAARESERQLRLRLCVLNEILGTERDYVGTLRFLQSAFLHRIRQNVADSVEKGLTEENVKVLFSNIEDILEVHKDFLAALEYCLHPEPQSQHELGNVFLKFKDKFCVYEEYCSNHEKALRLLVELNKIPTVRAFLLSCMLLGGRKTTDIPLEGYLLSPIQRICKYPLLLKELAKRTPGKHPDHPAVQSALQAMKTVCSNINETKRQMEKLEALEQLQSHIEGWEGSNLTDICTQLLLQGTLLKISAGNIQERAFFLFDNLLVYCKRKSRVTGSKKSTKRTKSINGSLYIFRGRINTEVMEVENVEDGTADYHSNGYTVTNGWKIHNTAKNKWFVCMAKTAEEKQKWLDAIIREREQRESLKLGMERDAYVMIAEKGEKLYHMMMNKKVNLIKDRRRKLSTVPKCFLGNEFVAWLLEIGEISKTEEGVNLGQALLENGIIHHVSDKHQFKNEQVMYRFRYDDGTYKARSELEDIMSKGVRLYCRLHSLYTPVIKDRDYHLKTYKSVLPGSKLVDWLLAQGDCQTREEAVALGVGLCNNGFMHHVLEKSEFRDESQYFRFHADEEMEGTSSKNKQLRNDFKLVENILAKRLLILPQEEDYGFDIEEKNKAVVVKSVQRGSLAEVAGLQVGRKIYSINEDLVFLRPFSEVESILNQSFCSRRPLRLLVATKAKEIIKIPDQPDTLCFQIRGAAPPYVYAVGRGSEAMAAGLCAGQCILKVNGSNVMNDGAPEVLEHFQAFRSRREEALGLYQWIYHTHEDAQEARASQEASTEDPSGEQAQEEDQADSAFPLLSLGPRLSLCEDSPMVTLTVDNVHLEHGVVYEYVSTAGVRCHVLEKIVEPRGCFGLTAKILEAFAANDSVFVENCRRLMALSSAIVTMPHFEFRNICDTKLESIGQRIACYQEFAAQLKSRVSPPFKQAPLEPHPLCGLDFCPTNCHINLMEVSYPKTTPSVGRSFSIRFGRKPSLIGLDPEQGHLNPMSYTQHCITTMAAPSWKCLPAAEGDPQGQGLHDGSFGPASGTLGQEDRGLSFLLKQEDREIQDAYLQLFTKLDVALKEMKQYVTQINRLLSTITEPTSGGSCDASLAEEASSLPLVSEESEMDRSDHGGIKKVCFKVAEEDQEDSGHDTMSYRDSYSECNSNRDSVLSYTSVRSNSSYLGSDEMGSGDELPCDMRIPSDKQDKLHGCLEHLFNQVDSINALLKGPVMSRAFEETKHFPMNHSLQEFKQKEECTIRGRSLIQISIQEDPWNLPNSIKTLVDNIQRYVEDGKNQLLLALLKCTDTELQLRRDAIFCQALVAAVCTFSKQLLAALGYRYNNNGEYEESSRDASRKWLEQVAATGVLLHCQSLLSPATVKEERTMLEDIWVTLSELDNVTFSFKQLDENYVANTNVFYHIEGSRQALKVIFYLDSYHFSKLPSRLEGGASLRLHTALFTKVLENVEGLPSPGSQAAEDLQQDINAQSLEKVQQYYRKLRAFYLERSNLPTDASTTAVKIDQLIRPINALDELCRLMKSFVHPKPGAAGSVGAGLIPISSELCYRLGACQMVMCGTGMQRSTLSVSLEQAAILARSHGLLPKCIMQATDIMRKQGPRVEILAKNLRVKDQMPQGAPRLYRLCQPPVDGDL
UniProt O95685: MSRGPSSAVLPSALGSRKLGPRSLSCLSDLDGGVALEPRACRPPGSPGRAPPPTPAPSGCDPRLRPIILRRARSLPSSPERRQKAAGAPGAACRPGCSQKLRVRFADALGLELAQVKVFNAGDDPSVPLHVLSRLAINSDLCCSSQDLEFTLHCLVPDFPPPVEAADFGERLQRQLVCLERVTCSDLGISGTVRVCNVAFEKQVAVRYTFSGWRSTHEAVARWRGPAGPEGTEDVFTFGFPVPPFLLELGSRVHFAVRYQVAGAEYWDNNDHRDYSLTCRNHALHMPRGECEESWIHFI
UniProt O75170: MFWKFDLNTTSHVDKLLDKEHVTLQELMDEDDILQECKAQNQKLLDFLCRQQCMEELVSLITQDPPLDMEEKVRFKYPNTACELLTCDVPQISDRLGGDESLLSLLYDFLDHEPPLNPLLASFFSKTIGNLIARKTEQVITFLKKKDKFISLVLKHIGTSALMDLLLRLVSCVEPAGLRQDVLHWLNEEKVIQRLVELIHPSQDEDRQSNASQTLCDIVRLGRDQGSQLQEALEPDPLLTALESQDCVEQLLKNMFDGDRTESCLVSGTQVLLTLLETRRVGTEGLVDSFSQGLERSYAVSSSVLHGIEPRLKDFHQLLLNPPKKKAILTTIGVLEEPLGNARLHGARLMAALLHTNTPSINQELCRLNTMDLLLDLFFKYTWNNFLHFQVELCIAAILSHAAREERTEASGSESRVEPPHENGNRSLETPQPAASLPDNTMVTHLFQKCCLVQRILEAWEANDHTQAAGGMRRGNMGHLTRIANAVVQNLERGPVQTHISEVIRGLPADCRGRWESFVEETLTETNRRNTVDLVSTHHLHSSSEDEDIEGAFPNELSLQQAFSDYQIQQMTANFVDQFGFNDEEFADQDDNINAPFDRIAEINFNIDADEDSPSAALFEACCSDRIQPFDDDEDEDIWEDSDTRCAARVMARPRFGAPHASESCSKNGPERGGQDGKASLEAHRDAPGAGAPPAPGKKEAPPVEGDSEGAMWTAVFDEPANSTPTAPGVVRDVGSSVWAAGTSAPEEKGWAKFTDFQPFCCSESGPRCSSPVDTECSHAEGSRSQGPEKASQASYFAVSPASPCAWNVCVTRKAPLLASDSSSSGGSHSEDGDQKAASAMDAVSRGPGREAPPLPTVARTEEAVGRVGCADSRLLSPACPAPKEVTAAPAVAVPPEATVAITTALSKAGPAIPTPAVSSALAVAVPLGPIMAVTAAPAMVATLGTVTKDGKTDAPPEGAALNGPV
UniProt P67775, whole entry: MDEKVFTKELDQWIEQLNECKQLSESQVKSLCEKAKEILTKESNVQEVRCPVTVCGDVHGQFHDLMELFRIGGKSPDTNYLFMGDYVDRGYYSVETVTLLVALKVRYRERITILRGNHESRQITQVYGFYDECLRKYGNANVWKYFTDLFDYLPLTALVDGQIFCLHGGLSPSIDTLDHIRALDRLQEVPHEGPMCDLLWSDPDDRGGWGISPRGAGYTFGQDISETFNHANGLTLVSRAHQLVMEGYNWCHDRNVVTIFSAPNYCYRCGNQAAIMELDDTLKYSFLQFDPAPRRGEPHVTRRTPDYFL
UniProt Q6ZMI0: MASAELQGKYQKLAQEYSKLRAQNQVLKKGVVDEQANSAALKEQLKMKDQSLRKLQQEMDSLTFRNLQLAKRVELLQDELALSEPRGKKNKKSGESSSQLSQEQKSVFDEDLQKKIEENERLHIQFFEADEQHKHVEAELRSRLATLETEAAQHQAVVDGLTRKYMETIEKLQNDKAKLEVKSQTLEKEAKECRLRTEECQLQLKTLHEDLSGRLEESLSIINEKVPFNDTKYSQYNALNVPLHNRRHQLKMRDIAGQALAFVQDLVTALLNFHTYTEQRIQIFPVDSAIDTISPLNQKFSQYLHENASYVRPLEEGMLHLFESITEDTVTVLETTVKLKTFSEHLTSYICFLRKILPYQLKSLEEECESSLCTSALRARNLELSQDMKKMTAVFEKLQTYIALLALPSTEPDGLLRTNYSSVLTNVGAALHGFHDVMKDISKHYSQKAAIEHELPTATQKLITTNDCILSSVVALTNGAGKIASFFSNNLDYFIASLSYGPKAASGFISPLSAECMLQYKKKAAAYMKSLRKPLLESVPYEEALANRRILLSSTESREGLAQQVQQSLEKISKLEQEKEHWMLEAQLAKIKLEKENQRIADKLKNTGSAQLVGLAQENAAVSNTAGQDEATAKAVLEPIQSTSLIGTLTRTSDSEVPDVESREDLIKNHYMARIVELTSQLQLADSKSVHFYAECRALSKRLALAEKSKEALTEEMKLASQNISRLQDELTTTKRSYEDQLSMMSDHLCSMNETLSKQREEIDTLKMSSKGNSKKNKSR
UniProt O75688: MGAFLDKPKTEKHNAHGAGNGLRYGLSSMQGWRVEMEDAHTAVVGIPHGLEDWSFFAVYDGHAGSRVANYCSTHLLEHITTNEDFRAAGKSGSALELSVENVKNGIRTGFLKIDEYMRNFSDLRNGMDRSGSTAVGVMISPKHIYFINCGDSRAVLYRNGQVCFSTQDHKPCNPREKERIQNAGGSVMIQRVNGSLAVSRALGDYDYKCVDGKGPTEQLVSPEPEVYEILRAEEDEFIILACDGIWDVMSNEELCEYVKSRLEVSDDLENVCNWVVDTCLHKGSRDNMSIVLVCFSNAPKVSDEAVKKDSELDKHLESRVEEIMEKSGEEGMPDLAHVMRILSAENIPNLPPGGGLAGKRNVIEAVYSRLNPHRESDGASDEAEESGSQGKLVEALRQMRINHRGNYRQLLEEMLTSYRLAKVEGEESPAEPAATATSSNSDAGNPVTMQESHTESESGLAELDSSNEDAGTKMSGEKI
UniProt P63098, whole entry, looked up: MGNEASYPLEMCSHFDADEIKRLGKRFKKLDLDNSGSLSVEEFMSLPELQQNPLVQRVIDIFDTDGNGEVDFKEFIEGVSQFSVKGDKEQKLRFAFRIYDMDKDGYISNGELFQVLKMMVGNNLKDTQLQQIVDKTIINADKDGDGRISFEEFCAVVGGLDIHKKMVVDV

Compound in the experiment: Cc1cc(ccc1-c1ccccc1)C(=O)N1CCCN(CC1)C(=O)CCl [compound 10]
The experiment in a line: probe-labelled cysteine peptide fold change vs DMSO (competition) (log2 fold change); higher = less target engagement (more negative = stronger competition). The following applies: THP-1, incubation time: 4 h.
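Further: competitive profiling in live THP-1 cells: cysteine peptides tagged with an iodoacetamide desthiobiotin (IA-DTB) probe, intensity after compound treatment relative to DMSO-treated cells.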

In the case of “PPP4R3B_Q5MIZ7_90_AGCDEIWEK (UniProt Q5MIZ7)”, the “probe-labelled cysteine peptide fold change” value is 0.108 (10 µM) and 0.445 (50 µM).
Regarding “PPIP5K2_O43314_382_CVIAVIR (UniProt O43314)”, the “probe-labelled cysteine peptide fold change” value is, setting by setting: (10 µM) -0.0316; (50 µM) 0.0615.
In the case of “PPP6R1_Q9UPN7_37_FDLHTSSHLDTLLEREDLSLPELLDEEDVLQECK (UniProt Q9UPN7)”, the “probe-labelled cysteine peptide fold change” value was -0.0534 (10 µM) and -0.305 (50 µM).
In the same order, the values of “PPP4R2_Q9NY27_22_EVCPVLDQFLCHVAK (UniProt Q9NY27)” are -0.179 and -0.365.
In the same order, the values of “PREPL_Q4J6C6_409_NCPFQLCSPIRPPK (UniProt Q4J6C6)” are 0.0194 and 0.034.
For “PREX1_Q8TCU6_1314_CTDTELQLR (UniProt Q8TCU6)” the same measures were 0.174 and 0.186.
In the case of “PPP1R3D_O95685_26_SLSCLSDLDGGVALEPR (UniProt O95685)”, the “probe-labelled cysteine peptide fold change” value is -0.329 (10 µM) and -0.597 (50 µM).
With “PPP6R2_O75170_769_CSSPVDTECSHAEGSR (UniProt O75170)”, the “probe-labelled cysteine peptide fold change” value is, setting by setting: (10 µM) -0.143; (50 µM) 0.213.
In the same order, the values of “PPP2CA_P67775_20_ELDQWIEQLNECK (UniProt P67775)” are -0.118 and -0.0861.
In the same order, the values of “PPP1R21_Q6ZMI0_468_LITTNDCILSSVVALTNGAGK (UniProt Q6ZMI0)” are 0.127 and 0.0617.
Take “PPM1B_O75688_279_SRLEVSDDLENVCNWVVDTCLHK (UniProt O75688)”: the “probe-labelled cysteine peptide fold change” value runs as follows: (10 µM) 0.264; (50 µM) 0.245.
As for “PPP3R1_P63098_154_ISFEEFCAVVGGLDIHK (UniProt P63098)”, the “probe-labelled cysteine peptide fold change” value came to 0.193 (10 µM) and 0.173 (50 µM).

These data come from the supplement of paper PMC12067093, “Discovery and optimisation of a covalent ligand for TRIM25 and its application to targeted protein ubiquitination” (Chemical Science, 2025).
